In paper PMC8249747:
For at least one entry, the source does not settle the construct or the ends of the probe. Tags and fusion partners may be left off the protein sequences shown.

Molecular target: T1, RspR (YdfH) (Escherichia coli K-12 W3110 type-A) (UniProt P0ACM2)
T1 sequence (looked up, limits assumed): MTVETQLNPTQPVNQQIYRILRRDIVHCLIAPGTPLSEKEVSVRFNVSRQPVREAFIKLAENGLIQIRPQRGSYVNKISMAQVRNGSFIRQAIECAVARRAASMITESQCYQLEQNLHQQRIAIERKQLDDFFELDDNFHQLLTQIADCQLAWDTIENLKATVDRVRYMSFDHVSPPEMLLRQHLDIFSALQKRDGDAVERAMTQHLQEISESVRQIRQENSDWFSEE
Experiment: EMSA
Settings: EMSA: gel shift buffer (composition not given), 37 C 30 min, PAGE, GelRed; recombinant protein; protein details: His-tag (pET21a vector); label: none (GelRed stain); probe letters rebuilt from the primers and the genome

GAAATTATTGGATGCTTTCTGCCCTGGTTGTGGTTAAAACGAAACGCCAGTATCTGGCTGTTGCTTCCGGCGGGGATTTCACTGGCGCTGTTTGTCTGGTTGTTAACGTTGCATCCAGCGGCGAGTGGGCGTGTTTACGCGGCTTATGGTGGCGTTTATGTCTGCACGGCGTTGATGTGGCTGCGCGTTGTGGATGGCGTGAAACTGACTCTTTATGACTGGACGGGTGCGTTGATTGCGCTTTGCGGCATGTTGATCATTGTTGCGGGCTGGGGGCGCACGTAGGAACATAAATCCATTTTATCAATAAGATAAGAGGAAGTGTCAGCTGACAAAAGGTATTCTATTTCATCTTTTGTCAACCATTCACAGCGCAAATATACGCCTTTTTTTGTGATCACTCCGGCTTTTTTCGATCTTTATACTTGTATGGTAGTAGCTCAGTTGCGTAGATTTCATGCATCACGACAAGCGATGCAAGGAATCGAAC (double strand) [rspA promoter probe (gel shift)]
binding result: binds
